## Cell number after 72 h of treatment

Source: doi:10.1371/journal.pone.0140310, primary screening data, rounded.

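The test systems are human melanoma cell lines, treated with two drugs together for 72 h and then stained and imaged. The read-out is cell count (nuclei) in % of the DMSO control; lower values mean stronger growth inhibition or killing. Concentrations were fixed for each drug; these are the higher of two levels. The file gives one value for each pair and line, without errors, so small differences may be noise.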 An unselected part of the screen is shown.

Compounds and concentrations:
sorafenib (2 µM): CNC(=O)c1cc(Oc2ccc(NC(=O)Nc3ccc(Cl)c(C(F)(F)F)c3)cc2)ccn1
BI-D1870 (1 µM): CC(C)CCN1c2nc(Nc3cc(F)c(O)c(F)c3)ncc2N(C)C(=O)C1C (stereo not given)
selumetinib (0.075 µM): Cn1cnc2c(F)c(Nc3ccc(Br)cc3Cl)c(C(=O)NOCCO)cc21
PLX4720 (0.4 µM): CCCS(=O)(=O)Nc1ccc(F)c(C(=O)c2c[nH]c3ncc(Cl)cc23)c1F
cisplatin (8 µM): N.N.[Cl][Pt][Cl]
everolimus (0.1 µM): CO[C@H]1C[C@@H]2CC[C@@H](C)[C@@](O)(O2)C(=O)C(=O)N2CCCC[C@H]2C(=O)O[C@H]([C@H](C)C[C@@H]2CC[C@@H](OCCO)[C@H](OC)C2)CC(=O)[C@H](C)/C=C(\C)[C@@H](O)[C@@H](OC)C(=O)[C@H](C)C[C@H](C)/C=C/C=C/C=C/1C
ZM336372 (10 µM): Cc1ccc(NC(=O)c2cccc(N(C)C)c2)cc1NC(=O)c1ccc(O)cc1
sunitinib (2 µM): CCN(CC)CCNC(=O)c1c(C)[nH]c(/C=C2\C(=O)Nc3ccc(F)cc32)c1C
crizotinib (1 µM): C[C@@H](Oc1cc(-c2cnn(C3CCNCC3)c2)cnc1N)c1c(Cl)ccc(F)c1Cl
temozolomide (10 µM): Cn1nnc2c(C(N)=O)ncn2c1=O
MK-2206 (2 µM): NC1(c2ccc(-c3nc4ccn5c(=O)[nH]nc5c4cc3-c3ccccc3)cc2)CCC1
nutlin-3 (0.5 µM): COc1ccc(C2=N[C@@H](c3ccc(Cl)cc3)[C@@H](c3ccc(Cl)cc3)N2C(=O)N2CCNC(=O)C2)c(OC(C)C)c1

Drugs | C32 | COLO 792 | COLO 829 | COLO 800 | WM3619 | WM451Lu
temozolomide + cisplatin | 89.2 | 80.9 | 66.3 | 102 | 95.0 | 115
cisplatin + selumetinib | 83.2 | 65.9 | 146 | 88.1 | 61.7 | 67.0
nutlin-3 + sorafenib | 97.2 | 119 | 69.4 | 117 | 115 | 120
sunitinib + everolimus | 61.9 | 33.6 | 106 | 45.6 | 48.0 | 32.4
MK-2206 + PLX4720 | 63.7 | 52.5 | 57.5 | 63.4 | 79.5 | 58.4
ZM336372 + cisplatin | 89.5 | 120 | 108 | 136 | 106 | 104
everolimus + nutlin-3 | 88.6 | 47.4 | 70.2 | 47.8 | 64.9 | 84.8
sunitinib + crizotinib | 50.8 | 47.9 | 110 | 33.7 | 52.1 | 51.7
PLX4720 + sorafenib | 67.4 | 88.3 | 72.1 | 73.8 | 92.3 | 58.7
PLX4720 + BI-D1870 | 99.2 | 114 | 71.5 | 104 | 80.7 | 73.5
temozolomide + sorafenib | 82.9 | 84.2 | 91.4 | 102 | 64.6 | 102
temozolomide + MK-2206 | 79.2 | 83.0 | 91.9 | 110 | 69.9 | 83.1
crizotinib + cisplatin | 96.8 | 84.9 | 83.7 | 95.8 | 103 | 89.1
sunitinib + cisplatin | 78.1 | 72.1 | 135 | 51.3 | 83.8 | 74.7
crizotinib + ZM336372 | 81.2 | 88.2 | 80.0 | 87.4 | 87.6 | 71.7
sunitinib + selumetinib | 74.8 | 37.9 | 77.2 | 56.3 | 62.4 | 41.7
ZM336372 + everolimus | 99.4 | 92.9 | 132 | 63.5 | 108 | 106
BI-D1870 + sorafenib | 95.3 | 116 | 121 | 70.1 | 82.6 | 91.6
cisplatin + BI-D1870 | 98.5 | 93.4 | 84.1 | 99.1 | 75.4 | 100
sorafenib + everolimus | 98.7 | 74.9 | 83.7 | 105 | 79.5 | 87.6
MK-2206 + nutlin-3 | 91.6 | 44.0 | 79.7 | 69.5 | 66.7 | 109
nutlin-3 + crizotinib | 73.8 | 72.1 | 57.0 | 90.0 | 116 | 88.0
sunitinib + temozolomide | 65.6 | 53.0 | 90.7 | 88.8 | 73.2 | 46.8
sorafenib + ZM336372 | 108 | 167 | 116 | 143 | 77.8 | 98.7
cisplatin + MK-2206 | 94.3 | 65.8 | 94.0 | 59.5 | 112 | 81.2
PLX4720 + ZM336372 | 72.1 | 102 | 94.0 | 60.4 | 109 | 62.4
MK-2206 + everolimus | 100 | 32.5 | 66.5 | 69.8 | 76.5 | 64.8
selumetinib + crizotinib | 58.1 | 65.3 | 82.4 | 54.8 | 60.4 | 60.2
BI-D1870 + crizotinib | 75.4 | 88.9 | 96.3 | 59.2 | 74.2 | 67.3

The first 2 entries again:

Drugs,C32,COLO 792,COLO 829,COLO 800,WM3619,WM451Lu
temozolomide + cisplatin,89.2,80.9,66.3,102,95.0,115
cisplatin + selumetinib,83.2,65.9,146,88.1,61.7,67.0